Experimental data: PubChem BioAssay AID743454 (Peter MacCallum Cancer Centre, 2014)
Assay: 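Knock-downs lowering viability or raising caspase 3/7 activity in vorinostat-treated resistant cells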 (primary screen). Cell system: human HCT116-VR colon cancer cells, selected for vorinostat resistance. Reagents: siRNA pool against human genes, 40 nM siRNA pool. Time to read-out: vorinostat for 24 h, read-out about 72 h after transfection. Conditions: vorinostat at 2.5 µM final. Measured: 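Two measures, CellTiter-Fluor viability and luminescent caspase 3/7 activity, each as fold change against same-plate mock wells, mean of duplicates, then screen-wide robust z-score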. Direction: viability robust z-score: higher = more viable cells than screen typical; caspase robust z-score: higher = more caspase 3/7 activity than screen typical. Hit rule: 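a knock-down is a hit when classed RV1 or RV2 for lowered viability, or CA1 or CA2 for caspase activation; those lethal without drug were dropped; hits were retested singly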.
This is an unselected part of about 18,000 reagents tested. Over the whole deposit, 450 (2.5%) were called active. 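Single biological run; no consistent viability z cut-off exists, so the class columns, not z-scores, define the calls.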 A number with no mark means an inactive call. Reagent sequences are not shown.

gene symbol | PubChem SID | viability hit class | caspase hit class | viability robust z-score | caspase robust z-score
APPL2 | SID152156303 | no change | no change | -0.46 | -0.24
GABRA6 | SID152149370 | no change | no change | 0.68 | 3.17
DDX25 | SID152151152 | no change | no change | 0.06 | -0.32
CXXC4 | SID134313665 | no change | no change | 0 | -0.48
CENPW | SID135625269 | no change | no change | -0.59 | 0.88
TRPC7 | SID134311836 | no change | no change | -2.8 | 2.26
CIMAP1A | SID134319249 | no change | no change | 0.24 | -0.97
OR1D4 | SID152148698 | no change | no change | -0.45 | 3.13
RNASEH2C | SID152148420 | no change | no change | 1.42 | 1.8
ZDHHC6 | SID135622671 | no change | no change | -0.72 | 2.19
NKAIN3 | SID152154551 | no change | no change | 0.8 | 1.86
RASSF10 | SID135625491 | no change | no change | 0.94 | 0.2
LINC00173 | SID134329587 | no change | no change | -0.4 | -0.31
ACOXL | SID152153905 | no change | no change | 0.09 | -0.25
MED7 | SID152156171 | no change | no change | -0.88 | 1.65
SEPTIN11 | SID134323977 | no change | no change | -0.08 | 1.75
MAGEL2 | SID135622517 | no change | no change | 0.38 | 0.7
LRRC34 | SID135623199 | no change | no change | -1.36 | -0.57
FBP1 | SID152151611 | no change (active) | CA1 (caspase activation) | -0.55 | 5.15
CRB1 | SID152155185 | no change | no change | 2.38 | 0.32
BLM | SID152151551 | no change | no change | 1.05 | -0.3
NPAS3 | SID134313367 | no change | no change | 0.04 | -0.46
ZNF480 | SID134319827 | no change | no change | 0.47 | -0.16
